# ± gives the standard deviation. The list shows a part of the results. Many of these values have a large error.
# System: EfPiwi piRISC loaded with L1MC piRNA (26 nt)
# Assay: pre-steady-state target cleavage rate (min^-1); guide: L1MC piRNA 5'p-UAACUAAAUACUAUGCAAGCUGUAGG; MIWI and MILI are mouse PIWI proteins and EfPiwi is from a freshwater sponge; tags in brackets are library labels; higher = faster piRNA-guided slicing of the target
# How it was run: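 Active affinity-purified piRISC (1 nM) loaded with one synthetic guide was mixed with a transcribed, DNA-blocked target RNA library (0.1 nM), with or without 500 nM GTSF1 partner protein, in HEPES–potassium acetate buffer at 33 °C for 0–8 or 0–960 min. Uncleaved targets were sequenced, normalised to depth and to weakly complementary targets, and pooled across three trials, with k3 capped at 0.0001 min^-1. The pre-steady-state cleavage rate was determined with a burst-and-steady-state fit.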
# [1] = auxiliary factor: 500 nM Ephydatia muelleri Gtsf1
# [2] = auxiliary factor: none (no Gtsf1)
Sequence,pre-steady-state target cleavage rate [1],pre-steady-state target cleavage rate [2]
UCCUGGUACAGCUUGCAUCGUAUUUAGUUA,0.00642 ± 0.0025,0.00122 ± 0.0094
UCCUGGAUCAGCUUGCAUAGUAAUUACUUA,0.00233 ± 0.0022,0.00086 ± 0.0093
UCCUGGAUCAGCUUGCAUAGUUUAUAGUUA,0.00056 ± 0.005,0.000489 ± 0.015
UCCUGGAUGUGCAUUGCAUAGUAUUUAGUUA,0.0129 ± 0.0042,0.00184 ± 0.0058
UCCUGGUACAGCUUGCAUAGUUUUUAGUUA,0.00335 ± 0.0044,0.000689 ± 0.02
UCCUGGAUCAGCUUGCAUACUAUUUAGUUA,0.0114 ± 0.0021,0.00287 ± 0.0038
UCCUGCUACAGCUUGCAUUGUAUUUAGUAA,0.00316 ± 0.0014,0.000376 ± 0.014
UCCUGGAUGUGCUUGCUUAGUAUAUAGUUA,0.00085 ± 0.0086,0.000532 ± 0.014
UCCUGGUACAGCUAGCAUAGUAUUUAGUAA,0.00365 ± 0.0021,0.000741 ± 0.011
UCCUGGAUCACCUUGCAAAGUAUUUAGUUA,0.00506 ± 0.0019,0.000438 ± 0.019
UCCUGGAUGAGCUUGCGUAGUAUUUAGUUA,0.00425 ± 0.0038,0.00294 ± 0.0056
UCCUGGAUCAGCGUGCAUAGUAUUUAGUUA,0.0619 ± 0.012,0.000618 ± 0.018
UCCUGGAUGAGCAUGCAUAGUAUUUAGUUA,0.0207 ± 0.0065,0.00167 ± 0.0052
UCCUGGAUGAAGCUUGCAUAGUAUUUAGUUA,0.0366 ± 0.0082,0.0015 ± 0.0074
UCCUCCUACAGCUAGCAUACUAUUUAGUUA,0.00634 ± 0.002,0.0011 ± 0.0063
UCCUGGAUGUGCUUGCAAAGUAUUUACUUA,0.00111 ± 0.005,0.00115 ± 0.0079
UCCUGGAUGUCGAACGUUAGUAUUUAGAUUA,0.000101 ± 0.084,< 0.0001
UCCUGGAACAGGUUGCAUAGUAUUUAGUAA,0.00828 ± 0.0031,0.000789 ± 0.011
UCCUGGAUGUCCUGGCAUAGUAUUUAGUUA,0.0055 ± 0.0047,0.000692 ± 0.011
UCCUGGUACAGCUUGCAUAGUAUUUGGUUA,0.00525 ± 0.002,0.000319 ± 0.033
UCCUGGAUGUCCGUGCAUAGUAUUUAGUUA,0.00483 ± 0.0024,0.000667 ± 0.013
UCCUGGAUGAGCUUGCAUAGUUUUUUGUUA,0.00102 ± 0.005,0.000409 ± 0.026
UCCUGGAUCAGCUUGCAUAGUGUUUAGUUA,0.0156 ± 0.0035,0.00696 ± 0.0045
UCCUGGAUCAGCUUGCAUAGUAUAUUAGUUA,0.127 ± 0.043,0.000753 ± 0.018
UCCUGGUACUAGCUUGCAUAGUAUUUAGUUA,0.00885 ± 0.0038,0.00189 ± 0.0075
UCCUGGAUCAGCUUGCAUUGUAUAUAGUUA,0.000484 ± 0.011,< 0.0001
UCCUCCUACAGCAUGCAUAGUUUUUAGUUA,0.00379 ± 0.0028,0.000932 ± 0.0068
UCCUGCUACAGGUUGCAUACUAUUUAGUUA,0.00621 ± 0.0019,0.000766 ± 0.01

Sequence,pre-steady-state target cleavage rate [1],pre-steady-state target cleavage rate [2]
UCCUGGAUGAGCUAGCAUAGUAUUUAGUUA,0.00597 ± 0.002,0.00169 ± 0.0064
UCCUGGAACAGCUUGCAGAGUAUUUAGUUA,0.012 ± 0.003,0.00133 ± 0.0067
UCCUGGAUGAGCUUGCAUUGUAUUUAGUUA,0.00376 ± 0.0029,0.00114 ± 0.0084
UCCUGGAAGAGCUUGCAUAGUAUUUUGUUA,0.00497 ± 0.0026,0.00104 ± 0.011
UCCUGGUACAGCUUGCAUAGUAUUUUCUAA,0.0055 ± 0.0029,0.00047 ± 0.034
UCCUGCUACAGCUUGCUUAGUUUUUAGUUA,0.0055 ± 0.0019,0.000708 ± 0.0097
UCCUGGUACAGCUUGCAUAGUAUCUAGUUA,0.004 ± 0.0021,0.00053 ± 0.016
UCCUGGAUGAGAUUGCAUAGUAUUUAGUUA,0.00463 ± 0.0025,0.000748 ± 0.013
UCCUGGUACAGACUUGCAUAGUAUUUAGUUA,0.00211 ± 0.0051,0.000474 ± 0.02
UCCUCCUACAGCAUGCAUAGUAUUUACUUA,0.00211 ± 0.0017,0.00026 ± 0.017
UCCUGGUACAGCUUGCAUAGUUAAUAGUUA,0.00196 ± 0.0044,0.00331 ± 0.0044
UCCUCCUACAGCUUGCAUUGUAAUUAGUUA,0.00753 ± 0.0034,0.00129 ± 0.006
UCCUGGAACAGGUUGCAUAGUAUUUACUUA,0.00101 ± 0.0036,0.000421 ± 0.013
UCCUGGUACAGCUUGCAGAGUAUUUAGUUA,0.00371 ± 0.0027,0.000388 ± 0.023
UCCUGGUACAGCUUGCAAUAGUAUUUAGUUA,0.00587 ± 0.0028,0.000822 ± 0.012
UCCUGCUACUGCUUGCAUACUAUUUAGUUA,0.00669 ± 0.0028,0.000866 ± 0.0082
UCCUGCUACAGCUUGCAUAGUAUUUAGUAUA,0.00675 ± 0.0019,0.000713 ± 0.011
UCCUGCUAGAGCUUGCUUAGUAUUUAGUUA,0.00554 ± 0.002,0.000982 ± 0.0069
UCCUGCUACUGCUUGGAUAGUAUUUAGUUA,0.0111 ± 0.0029,0.00353 ± 0.004
UCCUGGAUGUGCAUGCAUAGUAUUUACUUA,0.000588 ± 0.0091,< 0.0001
UCCUGGAUCUGCUUGCAUAGUAUAUAGUUA,0.0643 ± 0.018,0.011 ± 0.0069
UCCUGGAUGAGCUUUCAUAGUAUUUAGUUA,0.00433 ± 0.0018,0.000517 ± 0.015
UCCUGGUACAGCUUGCAUAGUAUUAUGUUA,0.00349 ± 0.0025,0.000372 ± 0.025
UCCUGGAUCAGCUUGCAUAGUACUUAGUUA,0.0145 ± 0.0031,0.0113 ± 0.0052
UCCUGCUACAGCGUUGCAUAGUAUUUAGUUA,0.0103 ± 0.0024,0.000789 ± 0.008
UCCUGGUACAGCUUGCAAAGUAUUAAGUUA,0.00292 ± 0.0026,0.000747 ± 0.011
UCCUGCUACAGCUUGCAUAGUAUCUUAGUUA,0.00633 ± 0.0017,0.000789 ± 0.0084

# Two entries picked at random from those above, as already listed:
Sequence,pre-steady-state target cleavage rate [1],pre-steady-state target cleavage rate [2]
UCCUGGUACAGACUUGCAUAGUAUUUAGUUA,0.00211 ± 0.0051,0.000474 ± 0.02
UCCUGGUACAGCUUGCAUAGUAUUUGGUUA,0.00525 ± 0.002,0.000319 ± 0.033
